In PMC6212790, “How bacterial xenogeneic silencer rok distinguishes foreign from self DNA in its resident genome” (Nucleic Acids Research, 2018):
These are yes or no findings as the source states them, for the method shown.

Molecular target: Rok-C^97-191 (C-terminal DNA binding domain of Rok, residues 97-191) (B. subtilis subsp. subtilis str. 168) (UniProt O34857)
Test: SEC; gel filtration on a GE HiLoad 16/600 Superdex 75 preparation grade column; elution volumes compared with cytochrome C (12.4 kD) and the void volume; both purified

B1: Rok-C^97-191 (C-terminal DNA binding domain of Rok, residues 97-191) (domain or fragment, UniProt O34857 97-191)
chain: AGIPDGTTRRRRGTARPGSKAAKLREAAIKTLKRHNAAIKSSELQKEIEKESGLEIPNMTTFMQSLIKMYPEVKKPYRGQYILEGEIESAESANE
binding: no binding
